The list shows a part of the results.
Experiments:
Assay in all cases: glycan array binding signal (z-score within array); higher = stronger binding
Conditions in all cases: glycan notation: IUPAC condensed, linker removed
Glc(b1-6)Glc = molecular target: Glc(b1-6)Glc
Outline: (§1)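 The binding signal is a Z-score computed within each array. Data were drawn from 3228 arrays in the Consortium for Functional Glycomics database, restricted to those with a known protein sequence. Scores were averaged over arrays of the same protein sequence at different concentrations or buffers, and over linkers, and negative values can be taken as non-binding.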

GlcA(b1-3)Gal = molecular target: GlcA(b1-3)Gal
Outline: as §1

GlcA(b1-3)GlcNAc = molecular target: GlcA(b1-3)GlcNAc
Outline: as §1

GlcA(b1-6)Gal = molecular target: GlcA(b1-6)Gal
Outline: as §1

[1] = molecular target: GlcA3S(b1-3)Gal(b1-4)GlcNAc(b1-2)Man
Outline: as §1

[2] = molecular target: GlcA3S(b1-3)Gal(b1-4)GlcNAc(b1-3)Gal(b1-4)Glc
Outline: as §1

[3] = molecular target: GlcNAc(a1-3)Gal(b1-4)GlcNAc
Outline: as §1

[4] = molecular target: GlcNAc(a1-4)Gal(b1-3)GlcNAc
Outline: as §1

[5] = molecular target: GlcNAc(a1-4)Gal(b1-4)GalNAc
Outline: as §1

[6] = molecular target: GlcNAc(a1-4)Gal(b1-4)GlcNAc
Outline: as §1

[7] = molecular target: GlcNAc(a1-4)Gal(b1-4)GlcNAc(b1-3)Gal(b1-4)Glc
Outline: as §1

[8] = molecular target: GlcNAc(a1-4)Gal(b1-4)GlcNAc(b1-3)Gal(b1-4)GlcNAc
Outline: as §1

[9] = molecular target: GlcNAc(a1-4)Gal(b1-4)GlcNAc(b1-3)Gal(b1-4)GlcNAc(b1-3)Gal(b1-4)GlcNAc
Outline: as §1

[10] = molecular target: GlcNAc(a1-4)Gal(b1-4)GlcNAc(b1-3)Gal(b1-4)[Fuc(a1-3)]GlcNAc(b1-3)Gal(b1-4)[Fuc(a1-3)]GlcNAc
Outline: as §1

[11] = molecular target: GlcNAc(a1-6)Gal(b1-4)GlcNAc
Outline: as §1

[12] = molecular target: GlcNAc(b1-2)Gal(b1-3)GalNAc
Outline: as §1

[13] = molecular target: GlcNAc(b1-2)Man(a1-3)[GlcNAc(b1-2)Man(a1-6)]Man(b1-4)GlcNAc(b1-4)GlcNAc
Outline: as §1

[14] = molecular target: GlcNAc(b1-2)Man(a1-3)[GlcNAc(b1-2)Man(a1-6)]Man(b1-4)GlcNAc(b1-4)[Fuc(a1-6)]GlcNAc
Outline: as §1

[15] = molecular target: GlcNAc(b1-2)Man(a1-3)[GlcNAc(b1-4)][GlcNAc(b1-2)Man(a1-6)]Man(b1-4)GlcNAc(b1-4)GlcNAc
Outline: as §1

[16] = molecular target: GlcNAc(b1-2)Man(a1-3)[GlcNAc(b1-4)][GlcNAc(b1-2)Man(a1-6)]Man(b1-4)GlcNAc(b1-4)[Fuc(a1-6)]GlcNAc
Outline: as §1

[17] = molecular target: GlcNAc(b1-2)[GlcNAc(b1-4)]Man(a1-3)[GlcNAc(b1-2)Man(a1-6)]Man(b1-4)GlcNAc(b1-4)GlcNAc
Outline: as §1

[18] = molecular target: GlcNAc(b1-2)[GlcNAc(b1-4)]Man(a1-3)[GlcNAc(b1-4)][GlcNAc(b1-2)Man(a1-6)]Man(b1-4)GlcNAc(b1-4)GlcNAc
Outline: as §1

[19] = molecular target: GlcNAc(b1-2)[GlcNAc(b1-4)]Man(a1-3)[GlcNAc(b1-4)][GlcNAc(b1-2)[GlcNAc(b1-6)]Man(a1-6)]Man(b1-4)GlcNAc(b1-4)GlcNAc
Outline: as §1

[20] = molecular target: GlcNAc(b1-2)[GlcNAc(b1-4)]Man(a1-3)[GlcNAc(b1-4)][GlcNAc(b1-2)[GlcNAc(b1-6)]Man(a1-6)]Man(b1-4)GlcNAc(b1-4)[Fuc(a1-6)]GlcNAc
Outline: as §1

[21] = molecular target: GlcNAc(b1-2)[GlcNAc(b1-6)]Man(a1-6)[GlcNAc(b1-2)Man(a1-3)]Man(b1-4)GlcNAc(b1-4)GlcNAc
Outline: as §1

[22] = molecular target: GlcNAc(b1-2)[GlcNAc(b1-6)]Man(a1-6)[GlcNAc(b1-2)Man(a1-3)]Man(b1-4)GlcNAc(b1-4)[Fuc(a1-6)]GlcNAc
Outline: as §1

[23] = molecular target: GlcNAc(b1-2)[GlcNAc(b1-6)]Man(a1-6)[GlcNAc(b1-4)][GlcNAc(b1-2)Man(a1-3)]Man(b1-4)GlcNAc(b1-4)GlcNAc
Outline: as §1

GlcNAc(b1-3)Fuc = molecular target: GlcNAc(b1-3)Fuc
Outline: as §1

GlcNAc(b1-3)Gal = molecular target: GlcNAc(b1-3)Gal
Outline: as §1

[24] = molecular target: GlcNAc(b1-3)Gal(b1-3)GalNAc
Outline: as §1

GlcNAc(b1-3)Gal(b1-4)Glc = molecular target: GlcNAc(b1-3)Gal(b1-4)Glc
Outline: as §1

[25] = molecular target: GlcNAc(b1-3)Gal(b1-4)GlcNAc
Outline: as §1

[26] = molecular target: GlcNAc(b1-3)Gal(b1-4)GlcNAc(b1-2)Man(a1-3)[GlcNAc(b1-3)Gal(b1-4)GlcNAc(b1-2)Man(a1-6)]Man(b1-4)GlcNAc(b1-4)GlcNAc
Outline: as §1

[27] = molecular target: GlcNAc(b1-3)Gal(b1-4)GlcNAc(b1-2)Man(a1-3)[GlcNAc(b1-3)Gal(b1-4)GlcNAc(b1-2)Man(a1-6)]Man(b1-4)GlcNAc(b1-4)[Fuc(a1-6)]GlcNAc
Outline: as §1

[28] = molecular target: GlcNAc(b1-3)Gal(b1-4)GlcNAc(b1-2)[GlcNAc(b1-3)Gal(b1-4)GlcNAc(b1-6)]Man(a1-6)[GlcNAc(b1-3)Gal(b1-4)GlcNAc(b1-2)Man(a1-3)]Man(b1-4)GlcNAc(b1-4)GlcNAc
Outline: as §1

[29] = molecular target: GlcNAc(b1-3)Gal(b1-4)GlcNAc(b1-3)Gal(b1-4)GlcNAc
Outline: as §1

[30] = molecular target: GlcNAc(b1-3)Gal(b1-4)GlcNAc(b1-3)Gal(b1-4)GlcNAc(b1-2)Man(a1-3)[GlcNAc(b1-3)Gal(b1-4)GlcNAc(b1-3)Gal(b1-4)GlcNAc(b1-2)Man(a1-6)]Man(b1-4)GlcNAc(b1-4)GlcNAc
Outline: as §1

[31] = molecular target: GlcNAc(b1-3)Gal(b1-4)GlcNAc(b1-3)Gal(b1-4)GlcNAc(b1-2)Man(a1-3)[GlcNAc(b1-3)Gal(b1-4)GlcNAc(b1-3)Gal(b1-4)GlcNAc(b1-2)Man(a1-6)]Man(b1-4)GlcNAc(b1-4)[Fuc(a1-6)]GlcNAc
Outline: as §1

[32] = molecular target: GlcNAc(b1-3)Gal(b1-4)GlcNAc(b1-3)Gal(b1-4)GlcNAc(b1-2)[GlcNAc(b1-3)Gal(b1-4)GlcNAc(b1-3)Gal(b1-4)GlcNAc(b1-6)]Man(a1-6)[GlcNAc(b1-3)Gal(b1-4)GlcNAc(b1-3)Gal(b1-4)GlcNAc(b1-2)Man(a1-3)]Man(b1-4)GlcNAc(b1-4)[Fuc(a1-6)]GlcNAc
Outline: as §1

[33] = molecular target: GlcNAc(b1-3)Gal(b1-4)GlcNAc(b1-3)Gal(b1-4)GlcNAc(b1-3)Gal(b1-4)GlcNAc(b1-2)Man(a1-3)[GlcNAc(b1-3)Gal(b1-4)GlcNAc(b1-3)Gal(b1-4)GlcNAc(b1-3)Gal(b1-4)GlcNAc(b1-2)Man(a1-6)]Man(b1-4)GlcNAc(b1-4)GlcNAc
Outline: as §1

[34] = molecular target: GlcNAc(b1-3)Gal(b1-4)GlcNAc(b1-3)Gal(b1-4)GlcNAc(b1-3)Gal(b1-4)GlcNAc(b1-2)Man(a1-3)[GlcNAc(b1-3)Gal(b1-4)GlcNAc(b1-3)Gal(b1-4)GlcNAc(b1-3)Gal(b1-4)GlcNAc(b1-2)Man(a1-6)]Man(b1-4)GlcNAc(b1-4)[Fuc(a1-6)]GlcNAc
Outline: as §1

[35] = molecular target: GlcNAc(b1-3)Gal(b1-4)GlcNAc(b1-3)Gal(b1-4)GlcNAc(b1-3)Gal(b1-4)GlcNAc(b1-2)[GlcNAc(b1-3)Gal(b1-4)GlcNAc(b1-3)Gal(b1-4)GlcNAc(b1-3)Gal(b1-4)GlcNAc(b1-6)]Man(a1-6)[GlcNAc(b1-3)Gal(b1-4)GlcNAc(b1-3)Gal(b1-4)GlcNAc(b1-3)Gal(b1-4)GlcNAc(b1-2)Man(a1-3)]Man(b1-4)GlcNAc(b1-4)[Fuc(a1-6)]GlcNAc
Outline: as §1

[36] = molecular target: GlcNAc(b1-3)Gal(b1-4)GlcNAc(b1-3)Gal(b1-4)GlcNAc(b1-3)Gal(b1-4)GlcNAc(b1-3)Gal(b1-4)GlcNAc(b1-2)Man(a1-3)[GlcNAc(b1-3)Gal(b1-4)GlcNAc(b1-3)Gal(b1-4)GlcNAc(b1-3)Gal(b1-4)GlcNAc(b1-3)Gal(b1-4)GlcNAc(b1-2)Man(a1-6)]Man(b1-4)GlcNAc(b1-4)GlcNAc
Outline: as §1

[37] = molecular target: GlcNAc(b1-3)Gal(b1-4)GlcNAc(b1-3)Gal(b1-4)GlcNAc(b1-3)Gal(b1-4)GlcNAc(b1-3)Gal(b1-4)GlcNAc(b1-2)Man(a1-3)[GlcNAc(b1-3)Gal(b1-4)GlcNAc(b1-3)Gal(b1-4)GlcNAc(b1-3)Gal(b1-4)GlcNAc(b1-3)Gal(b1-4)GlcNAc(b1-2)Man(a1-6)]Man(b1-4)GlcNAc(b1-4)[Fuc(a1-6)]GlcNAc
Outline: as §1

[38] = molecular target: GlcNAc(b1-3)Gal(b1-4)GlcNAc(b1-3)Gal(b1-4)GlcNAc(b1-3)Gal(b1-4)GlcNAc(b1-3)Gal(b1-4)GlcNAc(b1-2)[GlcNAc(b1-3)Gal(b1-4)GlcNAc(b1-3)Gal(b1-4)GlcNAc(b1-3)Gal(b1-4)GlcNAc(b1-3)Gal(b1-4)GlcNAc(b1-6)]Man(a1-6)[GlcNAc(b1-3)Gal(b1-4)GlcNAc(b1-3)Gal(b1-4)GlcNAc(b1-3)Gal(b1-4)GlcNAc(b1-3)Gal(b1-4)GlcNAc(b1-2)Man(a1-3)]Man(b1-4)GlcNAc(b1-4)[Fuc(a1-6)]GlcNAc
Outline: as §1

B1: Loc1 (Escherichia coli) (protein)
chain: APCALTNVGEQRGTYILKPLSMKGNLTAEKIENTGNIIECTDLQETTNAIKVHFLTQNALKFKVGSRHYIINFPFEYDGKKIELPGKSSYNLEEMLSAINFTIPYSIASVSDSSNTADIFPGTPFPLLFEIEVSSCTGNNTNCNSVRFNYNLNTILQVNLMTHHHHHH
- glycan array binding signal (z-score) (Glc(b1-6)Glc): 1.24
- glycan array binding signal (z-score) (GlcA(b1-3)Gal): -0.452
- glycan array binding signal (z-score) (GlcA(b1-3)GlcNAc): 0.374
- glycan array binding signal (z-score) (GlcA(b1-6)Gal): 0.253
- glycan array binding signal (z-score) [1]: 0.781
- glycan array binding signal (z-score) [2]: -0.398
- glycan array binding signal (z-score) [3]: -0.527
- glycan array binding signal (z-score) [4]: 0.435
- glycan array binding signal (z-score) [5]: -0.598
- glycan array binding signal (z-score) [6]: 0.112
- glycan array binding signal (z-score) [7]: 0.023
- glycan array binding signal (z-score) [8]: -0.411
- glycan array binding signal (z-score) [9]: -0.415
- glycan array binding signal (z-score) [10]: 0.576
- glycan array binding signal (z-score) [11]: 2.41
- glycan array binding signal (z-score) [12]: -0.413
- glycan array binding signal (z-score) [13]: -0.178
- glycan array binding signal (z-score) [14]: -0.894
- glycan array binding signal (z-score) [15]: -0.851
- glycan array binding signal (z-score) [16]: -0.643
- glycan array binding signal (z-score) [17]: -0.138
- glycan array binding signal (z-score) [18]: 1.11
- glycan array binding signal (z-score) [19]: 0.673
- glycan array binding signal (z-score) [20]: 0.179
- glycan array binding signal (z-score) [21]: 3.01
- glycan array binding signal (z-score) [22]: 1.35
- glycan array binding signal (z-score) [23]: -0.248
- glycan array binding signal (z-score) (GlcNAc(b1-3)Fuc): 1.43
- glycan array binding signal (z-score) (GlcNAc(b1-3)Gal): -0.408
- glycan array binding signal (z-score) [24]: -0.021
- glycan array binding signal (z-score) (GlcNAc(b1-3)Gal(b1-4)Glc): -0.705
- glycan array binding signal (z-score) [25]: 0.661
- glycan array binding signal (z-score) [26]: -0.113
- glycan array binding signal (z-score) [27]: 0.259
- glycan array binding signal (z-score) [28]: 0.191
- glycan array binding signal (z-score) [29]: 0.458
- glycan array binding signal (z-score) [30]: 0.904
- glycan array binding signal (z-score) [31]: 0.449
- glycan array binding signal (z-score) [32]: 0.447
- glycan array binding signal (z-score) [33]: 0.41
- glycan array binding signal (z-score) [34]: -0.224
- glycan array binding signal (z-score) [35]: 0.851
- glycan array binding signal (z-score) [36]: 1.84
- glycan array binding signal (z-score) [37]: -0.479
- glycan array binding signal (z-score) [38]: -0.076

— the supplement of paper PMC8728848
